Values from PubChem BioAssay AID1259273 (Sanger Institute, 2017)
The whole screen tested 160 reagents; shown is an unselected part. Over the whole deposit, 36 (22%) got an active call. 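Four distinct siRNA duplexes per gene; each call applies to one duplex and is not gene-level validation across cell lines.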 Entries without a mark were called inactive. The numbers tell different reagents against one gene apart. No viability above 1 is reported: the scale is capped. Not stated in the record: the amount of reagent, the time to read-out.

Aim: 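Find kinase knock-downs that boost killing of colorectal cancer cells by anchor drugs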 (follow-up of hits)
Cell system: human NCI-H630 colorectal cancer cells
Knock-down reagent: single siRNA against human genes
Treatment: anchor drugs BYL719 at 1 µM, cetuximab at 5 µg/ml or trametinib at 10 nM, or DMSO vehicle alone
Measurement: 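Replicate-averaged viability scaled to non-targeting control pool wells, plus per-drug synergy scores comparing knock-down with drug to knock-down only and drug only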
Reading the numbers: synergy score with trametinib and synergy score with BYL719 and synergy score with cetuximab: higher = stronger synergy, more synthetic lethal; viability with trametinib: higher = more viable cells with knock-down plus drug; viability, vehicle only: higher = more viable cells after knock-down
Rule for the call: 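a duplex counts as synthetic lethal if its averaged synergy score exceeds 0.10 with BYL719, cetuximab or trametinib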

target gene | siRNA no. | synergy score with trametinib | synergy score with BYL719 | synergy score with cetuximab | viability with trametinib (fraction of control) | viability, vehicle only (fraction of control)
BRAF (B-Raf proto-oncogene, serine/threonine kinase) | 1 | -0.0523 | -0.197 | -0.238 | 0.819 | 0.855
BRAF (B-Raf proto-oncogene, serine/threonine kinase) | 2 | 0.32 (active) | 0.135 | 0.0848 | 0.563 | 0.984
BRAF (B-Raf proto-oncogene, serine/threonine kinase) | 3 | -0.0923 | -0.175 | -0.159 | 0.859 | 0.855
BRAF (B-Raf proto-oncogene, serine/threonine kinase) | 4 | 0.148 (active) | -0.116 | -0.0488 | 0.749 | 1
PAK1 (p21 (RAC1) activated kinase 1) | 1 | 0.108 (active) | -0.0894 | -0.0587 | 0.788 | 1
PAK1 (p21 (RAC1) activated kinase 1) | 2 | 0.169 (active) | -0.0394 | 0.054 | 0.658 | 0.922
PAK1 (p21 (RAC1) activated kinase 1) | 3 | 0.108 (active) | 0.0238 | -0.013 | 0.789 | 1
PAK1 (p21 (RAC1) activated kinase 1) | 4 | -0.0307 | 0.0486 | -0.0816 | 0.894 | 0.963
PRAG1 (PEAK1 related, kinase-activating pseudokinase 1) | 1 | 0.0563 (active) | 0.187 | 0.0399 | 0.84 | 1
PRAG1 (PEAK1 related, kinase-activating pseudokinase 1) | 2 | -0.103 (active) | 0.205 | -0.23 | 1 | 1
PRAG1 (PEAK1 related, kinase-activating pseudokinase 1) | 3 | -0.103 | -0.104 | 0.00298 | 1 | 1
PRAG1 (PEAK1 related, kinase-activating pseudokinase 1) | 4 | 0.0288 | -0.00251 | 0.0963 | 0.868 | 1
AK2 (adenylate kinase 2) | 1 | -0.103 | -0.146 | -0.206 | 1 | 1
AK2 (adenylate kinase 2) | 2 | -0.000826 | -0.144 | -0.182 | 0.897 | 1
AK2 (adenylate kinase 2) | 3 | -0.103 | -0.146 | -0.23 | 1 | 1
AK2 (adenylate kinase 2) | 4 | 0.0795 | -0.146 | 0.0329 | 0.817 | 1
HUNK (hormonally up-regulated Neu-associated kinase) | 1 | 0.00749 | -0.107 | -0.233 | 0.8 | 0.9
HUNK (hormonally up-regulated Neu-associated kinase) | 2 | 0.13 (active) | -0.00575 | 0.0729 | 0.576 | 0.788
HUNK (hormonally up-regulated Neu-associated kinase) | 3 | -0.103 | -0.116 | -0.085 | 1 | 1
HUNK (hormonally up-regulated Neu-associated kinase) | 4 | 0.091 (active) | 0.0665 | 0.112 | 0.768 | 0.958
CSNK2A2 (casein kinase 2 alpha 2) | 1 | -0.0861 | -0.146 | -0.0739 | 0.983 | 1
CSNK2A2 (casein kinase 2 alpha 2) | 2 | 0.0374 | 0.0776 | -0.147 | 0.731 | 0.857
CSNK2A2 (casein kinase 2 alpha 2) | 3 | -0.00847 | -0.0502 | -0.126 | 0.739 | 0.814
CSNK2A2 (casein kinase 2 alpha 2) | 4 | 0.054 | -0.0852 | 0.0123 | 0.655 | 0.791
MPP3 (MAGUK p55 scaffold protein 3) | 1 | -0.0313 | -0.11 | -0.129 | 0.891 | 0.959
MPP3 (MAGUK p55 scaffold protein 3) | 2 | 0.0976 | -0.17 | -0.0884 | 0.73 | 0.923
MPP3 (MAGUK p55 scaffold protein 3) | 3 | -0.0211 | -0.0463 | -0.0532 | 0.918 | 1
MPP3 (MAGUK p55 scaffold protein 3) | 4 | 0.1 (active) | -0.0775 | -0.154 | 0.796 | 1
CHD4 (chromodomain helicase DNA binding protein 4) | 1 | 0.198 (active) | 0.0381 | -0.07 | 0.591 | 0.88
CHD4 (chromodomain helicase DNA binding protein 4) | 2 | -0.00418 | -0.181 | -0.0031 | 0.676 | 0.75
CHD4 (chromodomain helicase DNA binding protein 4) | 3 | -0.00807 | -0.115 | -0.075 | 0.854 | 0.944
CHD4 (chromodomain helicase DNA binding protein 4) | 4 | -0.103 | -0.146 | -0.23 | 1 | 1
SF3B1 (splicing factor 3b subunit 1) | 1 | -0.0803 | -0.0089 | -0.117 | 0.751 | 0.748
SF3B1 (splicing factor 3b subunit 1) | 2 | 0.0506 | 0.019 | -0.00155 | 0.585 | 0.709
SF3B1 (splicing factor 3b subunit 1) | 3 | -0.0037 | 0.051 | -0.0696 | 0.869 | 0.965
SF3B1 (splicing factor 3b subunit 1) | 4 | -0.14 | -0.0466 | -0.0745 | 0.644 | 0.562
MAPKAPK2 (MAPK activated protein kinase 2) | 1 | -0.000962 | -0.0426 | 0.0186 | 0.898 | 1
MAPKAPK2 (MAPK activated protein kinase 2) | 2 | -0.103 | -0.146 | -0.147 | 1 | 1
MAPKAPK2 (MAPK activated protein kinase 2) | 3 | -0.103 | -0.146 | -0.0586 | 1 | 1
MAPKAPK2 (MAPK activated protein kinase 2) | 4 | -0.103 | -0.146 | -0.0552 | 1 | 1
PIM1 (Pim-1 proto-oncogene, serine/threonine kinase) | 1 | -0.0273 | -0.00646 | 0.0129 | 0.852 | 0.92
PIM1 (Pim-1 proto-oncogene, serine/threonine kinase) | 2 | 0.0619 | -0.087 | -0.0536 | 0.822 | 0.986
PIM1 (Pim-1 proto-oncogene, serine/threonine kinase) | 3 | -0.103 | -0.0795 | -0.157 | 1 | 1
PIM1 (Pim-1 proto-oncogene, serine/threonine kinase) | 4 | -0.103 | -0.146 | -0.021 | 1 | 1
CRIM1 (cysteine rich transmembrane BMP regulator 1) | 1 | -0.0167 | -0.0901 | -0.0361 | 0.836 | 0.914
CRIM1 (cysteine rich transmembrane BMP regulator 1) | 2 | -0.18 | -0.179 | -0.264 | 1 | 0.915
CRIM1 (cysteine rich transmembrane BMP regulator 1) | 3 | -0.103 | -0.0481 | -0.00271 | 1 | 1
CRIM1 (cysteine rich transmembrane BMP regulator 1) | 4 | -0.0553 | -0.204 | -0.0183 | 0.84 | 0.875
PFKFB3 (6-phosphofructo-2-kinase/fructose-2,6-biphosphatase 3) | 1 | 0.00487 | -0.118 | 0.0842 | 0.892 | 1
PFKFB3 (6-phosphofructo-2-kinase/fructose-2,6-biphosphatase 3) | 2 | 0.0659 | -0.137 | -0.00975 | 0.757 | 0.918
PFKFB3 (6-phosphofructo-2-kinase/fructose-2,6-biphosphatase 3) | 3 | -0.103 | -0.146 | -0.176 | 1 | 1
PFKFB3 (6-phosphofructo-2-kinase/fructose-2,6-biphosphatase 3) | 4 | -0.0524 | -0.125 | -0.067 | 0.949 | 1
PLK1 (polo like kinase 1) | 1 | 0.00411 | 0.0377 | -0.0406 | 0.329 | 0.372
PLK1 (polo like kinase 1) | 2 | -0.022 | 0.0222 | -0.0861 | 0.36 | 0.377
PLK1 (polo like kinase 1) | 3 | -0.0432 | -0.0258 | -0.0767 | 0.365 | 0.359
PLK1 (polo like kinase 1) | 4 | -0.0736 | -0.0175 | -0.0935 | 0.307 | 0.26
RPS6KA4 (ribosomal protein S6 kinase A4) | 1 | 0.0452 | -0.146 | -0.0809 | 0.851 | 1
RPS6KA4 (ribosomal protein S6 kinase A4) | 2 | 0.0192 | -0.0665 | -0.0336 | 0.877 | 1
RPS6KA4 (ribosomal protein S6 kinase A4) | 3 | -0.0532 | -0.0638 | -0.149 | 0.95 | 1
RPS6KA4 (ribosomal protein S6 kinase A4) | 4 | 0.0362 | -0.0763 | -0.0954 | 0.86 | 1
BMPR2 (bone morphogenetic protein receptor type 2) | 1 | -0.103 | -0.146 | -0.23 | 1 | 1
BMPR2 (bone morphogenetic protein receptor type 2) | 2 | -0.103 | -0.135 | 0.0568 | 1 | 1
BMPR2 (bone morphogenetic protein receptor type 2) | 3 | -0.103 | -0.146 | -0.199 | 1 | 1
BMPR2 (bone morphogenetic protein receptor type 2) | 4 | -0.105 | -0.147 | -0.0746 | 1 | 0.999

An excerpt from above, reduced to “synergy score with BYL719”:
CSNK2A2 (casein kinase 2 alpha 2) #2 = 0.0776
CSNK2A2 (casein kinase 2 alpha 2) #3 = -0.0502
CSNK2A2 (casein kinase 2 alpha 2) #4 = -0.0852
MPP3 (MAGUK p55 scaffold protein 3) #1 = -0.11
MPP3 (MAGUK p55 scaffold protein 3) #2 = -0.17
MPP3 (MAGUK p55 scaffold protein 3) #3 = -0.0463
MPP3 (MAGUK p55 scaffold protein 3) #4 = -0.0775 (active)
CHD4 (chromodomain helicase DNA binding protein 4) #1 = 0.0381 (active)
CHD4 (chromodomain helicase DNA binding protein 4) #2 = -0.181
CHD4 (chromodomain helicase DNA binding protein 4) #3 = -0.115
